From the supplement of paper PMC9015667
Some of the results follow. Many values rest on one well or one pass, so single values are uncertain.

Assays:
Experiment in all cases: reduction in cell viability relative to untreated/vehicle; higher = more growth inhibition
Details in all cases: 200 nM; 72 h
M229P = test system: M229P (parental melanoma line)
M229R = test system: M229R (matched melanoma line resistant to BRAF inhibitors)
M238P = test system: M238P (parental melanoma line)
M238R = test system: M238R (matched melanoma line resistant to BRAF inhibitors)
M249P = test system: M249P (parental melanoma line)
M249R = test system: M249R (matched melanoma line resistant to BRAF inhibitors)
UACC62P = test system: UACC62P (parental melanoma line)
UACC62R = test system: UACC62R (matched melanoma line resistant to BRAF inhibitors)

Measured: reduction in cell viability

O=C(NCCO[N+](=O)[O-])c1cccnc1 [Nicorandil]
< 0%: all assays above

O=c1c(O)c(-c2ccc(O)c(O)c2)oc2cc(O)ccc12 [Fisetin]
33.1%: UACC62P
15.3%: M249P
< 0%: all other assays above

Cn1cc(C2=C(c3c4n(c5ccccc35)CCC(CN)C4)C(=O)NC2=O)c2ccccc21 (stereo not drawn)
< 0%: all assays above

CCc1cc(/C(C)=N/OCc2ccc(C3CCCCC3)c(C(F)(F)F)c2)ccc1CN1CC(C(=O)O)C1
< 0%: all assays above

N=C(N)Nc1ccc(C(=O)Oc2ccc3cc(C(=N)N)ccc3c2)cc1 [Nafamostat mesilate]
< 0%: all assays above

OCCn1cc(-c2ccc3c(c2)CC/C3=N\O)c(-c2ccncc2)n1
17.5%: M238P
51.3%: UACC62P
10.3%: M249P
8.5%: M229P
< 0%: all other assays above

CSCC[C@H](NC(=O)[C@H](Cc1c[nH]c2ccccc12)NC(=O)CCNC(=O)OC(C)(C)C)C(=O)N[C@@H](CC(=O)O)C(=O)N[C@@H](Cc1ccccc1)C(N)=O [Pentagastrin]
< 0%: all assays above

CNC(=O)[C@H](Cc1ccccc1)NC(=O)[C@H](CC(C)C)[C@H](CSc1cccs1)C(=O)NO [Batimastat]
< 0%: all assays above

O=C(NOC[C@H](O)CO)c1ccc(F)c(F)c1Nc1ccc(I)cc1F
12.3%: M229R
78%: M249P
< 0%: M238R
32.4%: UACC62R
61.4%: UACC62P
33.9%: M238P
42%: M249R
32.3%: M229P

COc1ccc(Nc2cc(-c3cnc(N)nc3)nc(N3CCOCC3)n2)cn1
10.7%: M238R
< 0%: all other assays above

CC(=O)O[C@]1(C(C)=O)CC[C@H]2[C@@H]3C[C@H](C)C4=CC(=O)CC[C@]4(C)[C@H]3CC[C@@]21C [Medroxyprogesterone acetate]
< 0%: all assays above

C=CC1=C(C(=O)O)N2C(=O)[C@@H](NC(=O)/C(=N\O)c3csc(N)n3)[C@H]2SC1 [Cefdinir]
< 0%: all assays above

COc1ccnc2[nH]cc(C(=O)C(=O)N3CCN(C(=O)c4ccccc4)C[C@H]3C)c12
1.24%: M249R
< 0%: all other assays above

Part of the list above in order of count of non-hydrogen atoms, largest number first:
COc1ccnc2[nH]cc(C(=O)C(=O)N3CCN(C(=O)c4ccccc4)C[C@H]3C)c12
1.24%: M249R
< 0%: all other assays above

COc1ccc(Nc2cc(-c3cnc(N)nc3)nc(N3CCOCC3)n2)cn1
10.7%: M238R
< 0%: all other assays above

O=C(NOC[C@H](O)CO)c1ccc(F)c(F)c1Nc1ccc(I)cc1F
12.3%: M229R
78%: M249P
< 0%: M238R
32.4%: UACC62R
61.4%: UACC62P
33.9%: M238P
42%: M249R
32.3%: M229P

Continuation:

CC1(COc2ccc3c(c2)ncn3-c2ccc3cccc(N4CCC(N)CC4)c3n2)COC1 [Crenolanib]
< 0%: all assays above

CC(C)c1noc(N2CCC(COc3ccc(-c4ccc(S(C)(=O)=O)cc4)nc3)CC2)n1
< 0%: all assays above

CC(C)(C)c1cc(C(=O)O)c(NC(=O)Nc2ccc3[nH]ncc3c2)s1
< 0%: all assays above

CN1CCN(C2=Nc3cc(Cl)ccc3Nc3ccccc32)CC1 [Clozapine]
< 0%: all assays above

COc1cccc2cc(-c3nc([C@H]4CC[C@H](C(=O)O)CC4)n4ncnc(N)c34)[nH]c12
7.78%: UACC62P
8.4%: M238P
8.42%: M249R
< 0%: all other assays above

O=C1[C@H](Cc2ccc(O)cc2)N2C(=O)CCN(C(=O)NCc3ccccc3)[C@H]2CN1Cc1cccc2ccccc12
< 0%: all assays above

CC(=O)Nc1cccc(-n2c(=O)n(C3CC3)c(=O)c3c(Nc4ccc(I)cc4F)n(C)c(=O)c(C)c32)c1 [Trametinib]
58.6%: UACC62P
33.5%: M229P
58.7%: M249R
35.5%: M238P
< 0%: M238R
33.3%: UACC62R
16.4%: M229R
79.3%: M249P

CCN(CC)CC#CCOC(=O)C(O)(c1ccccc1)C1CCCCC1 (stereo not drawn) [Oxybutynin chloride]
< 0%: all assays above
